The target of the test is T1, Zinc finger X‐chromosomal protein (ZFX) (human (in HCC cells)) (UniProt P17010).
T1 sequence: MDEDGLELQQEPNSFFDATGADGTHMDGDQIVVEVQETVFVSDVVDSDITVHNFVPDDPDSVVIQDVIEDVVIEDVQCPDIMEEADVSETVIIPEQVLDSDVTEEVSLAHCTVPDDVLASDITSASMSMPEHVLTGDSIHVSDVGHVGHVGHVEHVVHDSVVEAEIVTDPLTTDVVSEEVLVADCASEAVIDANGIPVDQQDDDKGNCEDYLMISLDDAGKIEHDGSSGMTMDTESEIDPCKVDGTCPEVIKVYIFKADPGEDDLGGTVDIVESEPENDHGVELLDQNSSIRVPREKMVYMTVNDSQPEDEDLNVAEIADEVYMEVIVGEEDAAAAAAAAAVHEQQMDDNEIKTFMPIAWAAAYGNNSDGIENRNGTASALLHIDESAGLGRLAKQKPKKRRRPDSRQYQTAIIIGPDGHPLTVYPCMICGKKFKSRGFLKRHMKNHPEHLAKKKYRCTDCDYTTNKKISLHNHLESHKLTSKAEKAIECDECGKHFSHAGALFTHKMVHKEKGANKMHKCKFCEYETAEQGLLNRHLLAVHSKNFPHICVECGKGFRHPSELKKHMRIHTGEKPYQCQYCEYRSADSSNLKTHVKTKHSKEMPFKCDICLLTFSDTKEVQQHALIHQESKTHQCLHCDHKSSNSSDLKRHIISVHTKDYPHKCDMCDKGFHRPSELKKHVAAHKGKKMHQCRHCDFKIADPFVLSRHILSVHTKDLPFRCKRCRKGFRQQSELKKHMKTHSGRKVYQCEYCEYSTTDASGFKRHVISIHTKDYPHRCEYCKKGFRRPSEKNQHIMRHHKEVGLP
Nature of the test: co-IP; liver CSC or non‐CSC subsets of HCC cells; which protein was precipitated is not told; no figure shown.

Protein sequences, listed by entry. Tags and fused reporters are not part of them.
UniProt P35222: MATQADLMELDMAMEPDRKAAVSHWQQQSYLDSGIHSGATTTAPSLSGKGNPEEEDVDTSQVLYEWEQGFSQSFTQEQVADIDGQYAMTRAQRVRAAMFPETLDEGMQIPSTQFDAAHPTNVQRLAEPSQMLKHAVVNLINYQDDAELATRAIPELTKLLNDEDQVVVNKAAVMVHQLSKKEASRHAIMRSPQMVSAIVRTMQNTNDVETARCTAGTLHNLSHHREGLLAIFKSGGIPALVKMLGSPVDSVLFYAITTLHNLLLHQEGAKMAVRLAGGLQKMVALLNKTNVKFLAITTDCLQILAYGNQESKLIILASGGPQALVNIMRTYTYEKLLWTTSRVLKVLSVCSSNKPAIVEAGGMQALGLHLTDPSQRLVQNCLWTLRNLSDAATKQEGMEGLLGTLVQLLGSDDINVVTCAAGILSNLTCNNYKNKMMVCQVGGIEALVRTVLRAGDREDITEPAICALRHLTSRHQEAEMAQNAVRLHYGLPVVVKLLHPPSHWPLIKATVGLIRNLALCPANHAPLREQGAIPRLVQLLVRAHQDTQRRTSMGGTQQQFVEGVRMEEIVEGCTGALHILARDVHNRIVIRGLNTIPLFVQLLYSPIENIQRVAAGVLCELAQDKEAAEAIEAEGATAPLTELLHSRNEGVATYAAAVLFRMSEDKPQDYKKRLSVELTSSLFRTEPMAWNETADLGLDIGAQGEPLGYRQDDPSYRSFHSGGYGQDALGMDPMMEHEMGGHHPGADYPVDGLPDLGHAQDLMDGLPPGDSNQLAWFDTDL

The values that follow come from publication PMC5527465.

No constants are given. Whether binding was seen depends on the method and setting. In cells and extracts the contact can be indirect.

Consider β‐catenin (from UniProt P35222 1-781), for which the binding result is “no binding”.
